Data on three substances can be found in paper PMC5869502.

Assay in all cases: FRET or BRET
Background: Bioluminescence resonance energy transfer reports proximity on the nanometre scale.

Test [1] deals with RSV M (1–200) (respiratory syncytial virus (RSV)) (UniProt P0DOE7).
The target of test [2] is T1, Respiratory syncytial virus (RSV) matrix (M) protein, full-length M (1–256) (respiratory syncytial virus (RSV)) (UniProt P0DOE7).
T1 sequence: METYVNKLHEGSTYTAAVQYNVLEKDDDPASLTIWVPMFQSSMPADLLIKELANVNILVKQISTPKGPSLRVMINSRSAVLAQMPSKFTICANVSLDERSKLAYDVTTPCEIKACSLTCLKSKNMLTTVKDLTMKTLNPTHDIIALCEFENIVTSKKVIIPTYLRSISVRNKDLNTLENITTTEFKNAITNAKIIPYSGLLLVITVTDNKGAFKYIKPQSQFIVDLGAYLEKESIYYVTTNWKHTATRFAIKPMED

Test [3] concerns the target RSV M (110–183) (respiratory syncytial virus (RSV)) (UniProt P0DOE7).
For test [4], the target named is RSV M (183–256) (respiratory syncytial virus (RSV)) (UniProt P0DOE7).

Results are given in words; binding and its absence hold for the method and conditions named. Binding seen in cells or lysates may run through a third protein.

With “RSV M (1–200) (from UniProt P0DOE7 1-200) (domain or fragment)”, the binding result in test [1] and in test [2] was “no binding” each time.

For the substance “RSV M (110–183) (from UniProt P0DOE7 110-183) (domain or fragment)”, the binding entry in test [3] and in test [2] was “no binding” in each case.

For “RSV M (183–256) (from UniProt P0DOE7 183-256) (domain or fragment)”, the binding entry in test [4] and in test [2] was “no binding” throughout.
